Results from patent US20050130997A1, “Pyrimidinone viral polymerase inhibitors” (priority 2002, published 2005).
Structures can show the parent of a compound that is named as a salt. Some results were stated once for a whole list of compounds, not compound by compound.

Sequences of proteins named here, by UniProt entry; tags and fusion partners are left off. Residues count along the entry.
UniProt P26663, 2420-3010: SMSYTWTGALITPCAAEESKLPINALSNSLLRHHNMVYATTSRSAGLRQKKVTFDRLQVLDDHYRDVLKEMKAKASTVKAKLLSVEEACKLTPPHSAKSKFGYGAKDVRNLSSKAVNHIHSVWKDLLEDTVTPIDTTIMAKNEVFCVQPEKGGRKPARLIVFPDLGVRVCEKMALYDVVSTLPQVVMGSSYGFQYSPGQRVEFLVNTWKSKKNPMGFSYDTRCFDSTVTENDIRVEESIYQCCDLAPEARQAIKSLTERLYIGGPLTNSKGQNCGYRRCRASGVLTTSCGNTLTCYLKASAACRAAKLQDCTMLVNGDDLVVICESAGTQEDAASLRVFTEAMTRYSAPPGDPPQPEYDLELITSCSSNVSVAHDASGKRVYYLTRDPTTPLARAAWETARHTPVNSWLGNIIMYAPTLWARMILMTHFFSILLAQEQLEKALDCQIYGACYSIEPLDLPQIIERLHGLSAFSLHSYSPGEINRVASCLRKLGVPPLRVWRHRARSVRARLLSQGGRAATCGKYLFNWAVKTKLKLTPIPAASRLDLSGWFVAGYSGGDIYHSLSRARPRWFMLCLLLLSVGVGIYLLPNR

Target: T1, HCV RdRp (Hepatitis C virus genotype 1b, UniProt P26663)
T1 construct: The final NSSB enzyme concentration was 20 nM; made in house; host or cells: insect cells infected with recombinant baculovirus (as described in the cited WO 96/37619)
Assay: Test for Inhibition of Hepatitis C Virus RdRp (poly(A)/oligo(U) polymerisation assay, [3H]-UTP incorporation)
Format: biochemical
Settings: recombinant HCV RdRp 20 nM, poly(A) template, oligo(U)12 primer, 1 h at 22° C.

IC50, < 100 µM:
COc1ccc(COc2cccc(-c3nc(C(=O)O)c(O)c(=O)n3C)c2)cc1 [Example 36]
Cn1c(-c2cccc(NC(=O)Nc3cccc(C(=O)O)c3)c2)nc(C(=O)O)c(O)c1=O [Example 26, 2-[3-({[(3-Carboxyphenyl)amino]carbonyl]amino)phenyl]-5-hydroxy-1-methyl-6-oxo-1,6-dihydropyrimidine-4-carboxylic acid]
Cn1c(-c2sccc2NC(=O)NS(=O)(=O)c2ccccc2Cl)nc(C(=O)O)c(O)c1=O [Example 23, 2-{3-[({[(2-Chlorophenyl)sulfonyl]amino}carbonyl)amino]thien-2-yl}-5-hydroxy-1-methyl-6-oxo-1,6-dihydropyrimidine-4-carboxylic acid]
Cn1c(-c2sccc2NC(=O)OCc2ccccc2Cl)nc(C(=O)O)c(O)c1=O [Example 49, 2-[3-({[(2-Chlorobenzyl)oxy]carbonyl}amino)thien-2-yl]-5-hydroxy-1-methyl-6-oxo-1 .6-dihydropyrimidine-4-carboxylic acid]
Cn1c(-c2occc2/C=C/c2ccccc2)nc(C(=O)O)c(O)c1=O [Example 39, 5-Hydroxy-1-methyl-6-oxo-2-[3-[(E)-2-phenylethenyl]furan-2-yl}-1,6-dihydropyrimidine-4-carboxylic acid]
Cn1c(-c2sccc2NC(=O)NCCc2ccccc2)nc(C(=O)O)c(O)c1=O [Example 16, 5-Hydroxy-1-methyl-6-oxo-2-[3-({[(2-phenylethyl)amino]-carbonyl]amino)thien-2-yl]-1,6-dihydropyrimidine-4-carboxylic acid]
Cn1c(-c2sccc2NC(=O)NC(c2ccccc2)c2ccccc2)nc(C(=O)O)c(O)c1=O [Example 13, 2-(3-{[(Benzhydrylamino)carbonyl]amino}thien-2-yl)-5-hydroxy-1-methyl-6-oxo-1,6-dihydropyrimidine-4-carboxylic acid]
Cn1c(-c2cccs2)nc(C(=O)O)c(O)c1=O [Example 2, 5-Hydroxy-1-methyl-6-oxo-2-(thien-2-yl)-1,6-dihydropyrimidine-4-carboxylic acid]
Cn1c(-c2sccc2NS(=O)(=O)c2ccc3ccccc3c2)nc(C(=O)O)c(O)c1=O [Example 28, 5-Hydroxy-1-methyl-2-{3-[(2-naphthylsulphonyl)amino]thien-2-yl}-6-oxo-1,6-dihydropyrimidine-4-carboxylic acid]
Cn1c(-c2ccco2)nc(C(=O)O)c(O)c1=O [Example 38, 2-(Furan-2-yl)-5-hydroxy-1-methyl-6-oxo-1,6-dihydropyrimidine-4-carboxylic acid]
Cn1c(-c2cscc2NC(=O)NS(=O)(=O)c2ccccc2Cl)nc(C(=O)O)c(O)c1=O [Example 22]
Cn1c(-c2sccc2[N+](=O)[O-])nc(C(=O)O)c(O)c1=O [Example 4, 5-Hydroxy-1-methyl-2-(3-nitrothien-2-yl)-6-oxo-1,6-dihydropyrimidine-4-carboxylic acid]
Cn1c(-c2ccsc2)nc(C(=O)O)c(O)c1=O [Example 40, 5-Hydroxy-1-methyl-6-oxo-2-(thien-3-yl)-1,6-dihydropyrimidine-4-carboxylic acid]
Cn1c(-c2cccc(NC(=O)Nc3ccccc3-c3ccccc3)c2)nc(C(=O)O)c(O)c1=O [Example 25, 2-(3-{[(1,1′-Biohenyl-2-ylamino)carbonyl]amino}phenyl)-5-hydroxy-1-methyl-6-oxo-1,6-dihydropyrimidine-4-carboxylic acid]
Cn1c(-c2sccc2N)nc(C(=O)O)c(O)c1=O [Example 5, 5-Hydroxy-1-methyl-2-(3-aminothien-2-yl)-6-oxo-1,6-dihydropyrimidine-4-carboxylic acid hydrochloride salt]
Cn1c(-c2sccc2NC(=O)NCc2ccccc2Cl)nc(C(=O)O)c(O)c1=O [Example 1, 2-[3-({[(2-Chlorobenzyl)amino]carbonyl]amino)thien-2-yl]-5-hydroxy-1-methyl-6-oxo-1,6-dihydropyrimidine-4-carboxylic acid]
Cn1c(-c2sccc2C(=O)NCCc2ccccc2Cl)nc(C(=O)O)c(O)c1=O [Example 31]
O=C(O)c1nc(-c2cccs2)n(CC(F)(F)F)c(=O)c1O [Example 45, 5-Hydroxy-6-oxo-2-(thien-2-yl)-1-(2,2,2-trifluoroethyl)-1,6-dihydroyvrimidine-4-carboxylic acid]
Cn1c(-c2sccc2CCOCc2ccccc2)nc(C(=O)O)c(O)c1=O [Example 21, 2-{3-[2-(Benzyloxy)ethyl]thien-2-yl}-5-hydroxy-1-methyl-6-oxo-1,6-dihydropyrimidine-4-carboxylic acid]
Cn1c(-c2sccc2NC(=O)NC2CC2c2ccccc2)nc(C(=O)O)c(O)c1=O (stereo not drawn) [Example 15]
CC(=O)Nc1ccsc1-c1nc(C(=O)O)c(O)c(=O)n1C [Example 7, 2-[3-(Acetylamino)thien-2-yl]-5-hydroxy-1-methyl-6-oxo-1,6-dihydropyrimidine-4-carboxylic acid]
Cn1c(-c2sccc2CCc2ccccc2)nc(C(=O)O)c(O)c1=O [Example 33, 5-Hydroxy-1-methyl-6-oxo-2-[3-(2-phenylethyl)thien-2-yl]-1,6-dihydropyrimidine-4-carboxylic acid]
CCn1c(-c2cccs2)nc(C(=O)O)c(O)c1=O [Example 43, 1-Ethyl-5-hydroxy-6-oxo-2-(thien-2-yl)-1,6-dihydropyrimidine-4-carboxylic acid]
Cn1c(-c2sccc2NC(=O)Nc2ccccc2)nc(C(=O)O)c(O)c1=O [Example 11, 2-{3-[(Anilinocarbonyl)amino]thien-2-yl}-5-hydroxy-l-methyl-6-oxo-1,6-dihydropyrimidine-4-carboxylic acid]
Cn1c(-c2sccc2NC(=O)CCc2ccccc2Cl)nc(C(=O)O)c(O)c1=O [Example 10, 2-(3-{[3-(2-Chlorophenyl)propanoyl]amino}thien-2-yl)-5-hydroxy-1-methyl-6-oxo-1,6-dihydropyrimidine-4-carboxylic acid]
Cn1c(-c2nccs2)nc(C(=O)O)c(O)c1=O [Example 3, 5-Hydroxy-1-methyl-6-oxo-2-(thiazol-2-yl)-1,6-dihydropyrimidine-4-carboxylic acid]
Cn1c(-c2sccc2Br)nc(C(=O)O)c(O)c1=O [Example 6, 5-Hydroxy-1-methyl-2-(3-bromothien-2-yl)-6-oxo-1,6-dihydropyrimidine-4-carboxylic acid]
Cn1c(-c2sccc2/C=C/CCc2ccccc2Cl)nc(C(=O)O)c(O)c1=O [Example 34]
Cn1c(-c2sccc2C(=O)O)nc(C(=O)O)c(O)c1=O [Example 30, 2-(3-Carboxythien-2-yl)-5-hydroxy-1-methyl-6-oxo-1,6-dihydropyrimidine-4-carboxylic acid]
Cn1c(-c2sccc2NC(=O)c2ccccc2)nc(C(=O)O)c(O)c1=O [Example 8, 2-[3-(Benzoylamino)thien-2-yl]-5-hydroxy-1-methyl-6-oxo-1,6-dihydropyrimidine-4-carboxylic acid]
O=C(O)c1ccc(Cn2c(-c3cccs3)nc(C(=O)O)c(O)c2=O)cc1 [Example 46, 1-(4-Carboxybenzyl)-5-hydroxy-6-oxo-2-(thien-2-yl)-1,6-dihydrolpyridine-4-carboxylic acid]
O=C(O)c1nc(-c2cccs2)n(CCc2ccccc2Cl)c(=O)c1O [Example 42, 1-[2-(2-Chlorophenyl)ethyl]-5-hydroxy-6-oxo-2-(thien-2-yl)-1,6-dihydropyrimidine-4-carboxylic acid]
Cn1c(-c2sccc2NC(=O)NCc2csc(-c3ccccc3)n2)nc(C(=O)O)c(O)c1=O [Example 48, 5-Hydroxy-1-methyl-6-oxo-2-{3-[({[(2-phenyl-1,3-thiazol-4-yl)methyl]amino}carbonyl)amino]thien-2-yl}-1,6-dihydropyrimidine-4-carboxylic acid]
Cn1c(-c2sccc2NS(=O)(=O)Cc2ccccc2)nc(C(=O)O)c(O)c1=O [Example 27, 2-{3-[(Benzylsulfonyl)amino]thien-2-yl]-5-hydroxy-1-methyl-6-oxo-1,6-dihydropyrimidine-4-carboxylic acid]
Cn1c(-c2sccc2NS(=O)(=O)CCc2cccc3ccccc23)nc(C(=O)O)c(O)c1=O [Example 47]
Cn1c(-c2sccc2C=O)nc(C(=O)O)c(O)c1=O [Example 29, 2-(3-Formylthien-2-yl)-5-hydroxy-1-methyl-6-oxo-1,6-dihydropyrimidine-4-carboxylic acid]
Cn1c(-c2ccccc2OCc2ccc(Cl)c(Cl)c2)nc(C(=O)O)c(O)c1=O [Example 37]
CC(C)COC(=O)Nc1ccsc1-c1nc(C(=O)O)c(O)c(=O)n1C [Example 17]
Cn1c(-c2sccc2/C=C/c2ccccc2)nc(C(=O)O)c(O)c1=O [Example 32, 5-Hydroxy-1-methyl-6-oxo-2-{3-[(E)-2-nhenylethenyl]thien-2-yl]-1,6-dihydropyrimidine-4-carboxylic acid]
Cc1[nH]c2ccccc2c1CC(=O)Nc1ccsc1-c1nc(C(=O)O)c(O)c(=O)n1C [Example 9, 5-Hydroxy-1-methyl-2-(3-{[(2-methyl-1H-indol-3-yl)acetyl]amino}thien-2-yl)-6-oxo-1,6-dihydropyrimidine-4-carboxylic acid]
CC(NC(=O)Nc1ccsc1-c1nc(C(=O)O)c(O)c(=O)n1C)c1cccc2ccccc12 (stereo not drawn) [Example 14]
Cn1c(-c2sccc2NC(=O)Nc2ccccc2-c2ccccc2)nc(C(=O)O)c(O)c1=O [Example 12, 2-(3-{[(1,1′-Biphenyl-2-ylamino)carbonyl]amino}thien-2-yl)-5-hydroxy-1-methyl-6-oxo-1,6-dihydropyrimidine-4-carboxylic acid]
